Test system: Aβ42/40 ratio
Assay: Aβ42/40 ratio in FAD1 iPS cell-derived nerve cells (primary/secondary screening, dose dependency)
Format: cell-based, human
Conditions: secondary screening
Excerpt: To perform induction from iPS cells to the cerebral cortex nerve early and with high reproducibility, iPS cells introduced with human Neurogenin 2 gene (NGN2) linked to doxycycline-inducible promoter by using PiggyBac were used (FIG. 1a, FIG. 1b, FIG. 4a and FIG. 4b). IPS cells prepared from 4 patients with familial Alzheimer's disease (FAD), 2 patients with sporadic Alzheimer's disease (SAD) and 4 healthy individuals (HC) were used. The iPS cells were established by the method described in Okita K et al., Nature.
Structural formulas (those in the form of salt or halide are also described as free form) and the general names of the candidate compounds are shown in Table 1.
To further study reproducibility of the candidate drugs obtained by the primary screening, secondary screening was conducted. In addition to Aβ40, Aβ42, Aβ42/40 ratio, Aβ38, Aβ43, sAPPα, sAPPβ were also studied and each numerical value was obtained.

SMILES: CCN(CC)CCOC(=O)C1(C2CCCCC2)CCCCC1 [compound 104, DICYCLOMINE]
- Ratio Aβ42/40: 0.99

Source: US11026942B2, “Agent for preventing and/or treating Alzheimer's disease” (KYOTO UNIVERSITY, priority 2015, dated 2021)
